Taken from: PubChem BioAssay AID686943 (Drosophila RNAi Screening Center, 2013)

Aim: 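Fly genes whose loss alters ERK activation after insulin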 (primary screen)
System: Drosophila S2R+ haemocyte-like cells expressing YFP-tagged ERK (Rolled)
Reagents: long dsRNA against Drosophila genes
Treatment: insulin stimulation versus unstimulated cells; dose and duration not given
Measurement: 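Per-plate z-scores of phospho-ERK immunostaining normalised to YFP-tagged ERK, measured with and without insulin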
Scale: replicate 1, z-score of dpERK with insulin and replicate 2, z-score of dpERK with insulin: higher = more active ERK per ERK-YFP after insulin; replicate 1, z-score of dpERK under basal conditions: higher = more basal active ERK per ERK-YFP; replicate 1, z-score of ERK-YFP with insulin: higher = more YFP-tagged ERK signal
The deposit covers about 23,000 reagents; this is a random part of those that have a named target and a result. 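Extra replicates exist only for a retested subset of genes; insulin dose and duration not given; both raised and lowered dpERK matter.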 A plus sign joins genes that one reagent is predicted to hit. The record does not give: the amount of reagent, the time to read-out.

no.	gene	dsRNA	replicate 1, z-score of dpERK with insulin	replicate 2, z-score of dpERK with insulin	replicate 1, z-score of dpERK under basal conditions	replicate 1, z-score of ERK-YFP with insulin
1	NijA	DRSC10637	-1.13	-0.9	1.07	0.82
2	Cpr65Ay	DRSC08796	1.08	0.52	-0.21	-0.54
3	lncRNA:CR43493 + l(1)G0196	DRSC20628	-0.1	-0.5	0.38	0.09
4	VhaM9.7-c	DRSC08204	0.42	0.24	-0.24	0.08
5	cbt	DRSC00655	0.34	0.12	-0.27	-0.81
6	CG3663	DRSC04402	0.16	-0.36	-0.99	-0.07
7	CG1161	DRSC12180	-7.33	-5.92	-4.4	0.52
8	CG7856	DRSC04896	1.01	0.24	0.13	-0.31
9	CG3342	DRSC18304	-0.44	0.51	5.49	0.44
10	CG31088	DRSC13123	0.47	0.44	0.02	0.08
11	cDIP	DRSC14267	0.27	-1.17	0.09	0.11
12	NiPp1	DRSC07307	0.54	0.24	-0.47	-0.19
13	fs(1)K10	DRSC18775	-0.99	-1.5	0.03	-0.1
14	Pif1	DRSC00582	-0.13	0.46	-0.51	-0.97
15	Dsor1	DRSC18462	-0.95	-1.47	-1.88	-1.36
16	l(1)G0020	DRSC18198	-0.64	0.43	-1.14	0.68
17	GstO1	DRSC10688	1.06	1.98	0.37	-0.59
18	Mitofilin	DRSC16742	-1.56	1.03	0.31	-1.1
19	Dhc62B	DRSC08655	-0.81	-0.57	0.03	-0.1
20	CG32079	DRSC22636	0.45	0.47	-0.29	0.85
21	Rpt4	DRSC18713	-3.24	-3.44	-3.25	3.88
22	CG12917	DRSC06231	0.22	0.83	0.19	0.31
23	otp	DRSC04050	-1.76	-1.98	-0.13	4.74
24	otp	DRSC04707	0.49	-1.63	-0.93	-1.96
25	mon2	DRSC03112	0.09	1.16	1.32	0.34
26	wek	DRSC03561	-0.78	-0.56	-0.69	-1.16
27	Sirt6	DRSC16010	0.14	0.16	1.27	-0.05
28	sing + Axs	DRSC19333	0.21	0.59	-0.2	0.53
29	Hers	DRSC19429	2.08	0.25	1.65	0.33
30	Hers	DRSC19676	-0.31	0.28	-0.32	0.26
31	Nuf2	DRSC03123	-0.76	0.1	-0.11	-1.05
32	Ir52c	DRSC21801	-0.5	0.17	-0.34	1.88
33	CCKLR-17D1	DRSC20010	1.69	0.04	-1.08	0.17
34	CCKLR-17D1	DRSC20011	0.75	0.56	-0.75	0.29
35	CCKLR-17D1	DRSC20012	0.52	1.42	-0.28	0.48
36	ACXC	DRSC00846	-0.46	-0.31	-0.8	0.77
37	PIG-B	DRSC08216	-0.12	2.08	-0.55	1.49
38	PIG-B	DRSC22598	0.45	0.34	0.41	-0.05
39	CG4955	DRSC19927	0.14	1.36	-0.04	0.18
40	Cpr72Ea	DRSC10451	-0.06	0.24	-0.26	0.02
41	CG9154	DRSC03150	-0.03	0.73	-0.08	0.53
42	Coq8	DRSC19900	-0.73	0.71	-0.53	0.53
43	CG18178	DRSC10302	-0.08	0.08	0.14	-0.03
44	VGAT	DRSC07160	0.35	0.86	1.19	0.11
45	CDase	DRSC14932	-0.73	-0.1	-0.31	0.31
46	CG8441	DRSC07180	-0.07	0.29	1.31	0.38
47	Gba1b	DRSC21531	0.06	-0.24	0.23	1.87
48	CG1344	DRSC04837	0.15	0.65	1.2	-0.19
49	CR42545	DRSC03709	-0.12	0.69	-0.54	0.9
50	p115	DRSC18813	-0.35	0.3	-0.11	0.45
51	CG11180	DRSC06055	0.46	1.67	0.55	0.68
52	to	DRSC17086	0.42	-0.4	-1.42	-0.58
53	CG33310	DRSC01897	0.52	0.63	0.24	-0.32
54	TM9SF4	DRSC01888	0.04	0.45	-0.11	0.59
55	CG34286	DRSC13372	0.89	0.71	0.56	0.55
56	CG34286	DRSC21790	-1.24	-1.04	-0.09	0.43
57	prg	DRSC03324	0.36	-0.77	0.22	0.25

Entries listed so far whose target name starts with M or m:
gene	dsRNA	replicate 1, z-score of dpERK with insulin	replicate 2, z-score of dpERK with insulin	replicate 1, z-score of dpERK under basal conditions	replicate 1, z-score of ERK-YFP with insulin
Mitofilin	DRSC16742	-1.56	1.03	0.31	-1.1
mon2	DRSC03112	0.09	1.16	1.32	0.34
